Our source for the binding values is publication PMC6746701, “A phyB-PIF1-SPA1 kinase regulatory complex promotes photomorphogenesis in Arabidopsis” (Nature Communications, 2019).

Chains of the proteins cited; added tags and fusions are not shown. Lines headed by an entry give the natural chain unless they say otherwise; changes in a name come on top. Residues count along the entry.
UniProt P14713: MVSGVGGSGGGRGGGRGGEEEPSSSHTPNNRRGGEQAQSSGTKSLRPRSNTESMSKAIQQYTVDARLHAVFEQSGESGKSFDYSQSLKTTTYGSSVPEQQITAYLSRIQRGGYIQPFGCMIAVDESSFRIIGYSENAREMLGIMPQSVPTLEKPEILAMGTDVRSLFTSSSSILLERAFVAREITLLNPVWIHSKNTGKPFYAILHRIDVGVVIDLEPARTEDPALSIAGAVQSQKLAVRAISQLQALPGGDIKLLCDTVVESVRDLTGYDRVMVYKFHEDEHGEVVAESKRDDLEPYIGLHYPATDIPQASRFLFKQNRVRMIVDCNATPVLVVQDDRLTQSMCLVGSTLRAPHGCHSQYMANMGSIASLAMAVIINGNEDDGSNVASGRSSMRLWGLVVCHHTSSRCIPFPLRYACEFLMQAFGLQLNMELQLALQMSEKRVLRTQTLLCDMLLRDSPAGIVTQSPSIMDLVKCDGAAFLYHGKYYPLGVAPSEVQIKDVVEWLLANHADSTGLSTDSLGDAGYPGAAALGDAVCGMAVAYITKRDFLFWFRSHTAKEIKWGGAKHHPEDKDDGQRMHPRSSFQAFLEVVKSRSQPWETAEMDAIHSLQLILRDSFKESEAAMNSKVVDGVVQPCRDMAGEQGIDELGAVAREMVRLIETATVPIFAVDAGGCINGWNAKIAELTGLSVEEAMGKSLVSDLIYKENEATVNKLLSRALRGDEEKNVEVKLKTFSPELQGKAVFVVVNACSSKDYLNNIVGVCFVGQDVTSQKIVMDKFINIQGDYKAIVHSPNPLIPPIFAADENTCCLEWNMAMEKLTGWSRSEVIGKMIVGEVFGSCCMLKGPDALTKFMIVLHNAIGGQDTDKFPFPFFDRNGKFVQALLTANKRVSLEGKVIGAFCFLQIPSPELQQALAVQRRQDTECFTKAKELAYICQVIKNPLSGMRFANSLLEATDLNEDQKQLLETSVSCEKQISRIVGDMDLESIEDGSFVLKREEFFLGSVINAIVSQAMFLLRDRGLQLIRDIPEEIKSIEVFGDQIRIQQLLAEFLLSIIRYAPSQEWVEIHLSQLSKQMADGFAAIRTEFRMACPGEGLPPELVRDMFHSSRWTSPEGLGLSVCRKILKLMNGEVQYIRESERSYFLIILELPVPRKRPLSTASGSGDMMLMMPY
phyB-GFP ΔC purified from yeast (Saccharomyces cerevisiae): residues 1-1092 of P14713
LexA-PHYB CT (aa 625-1172): residues 625-1172 of P14713

Experiment [1] deals with LexA-PHYB CT (aa 625-1172) (Arabidopsis) (UniProt P14713). Description: two-hybrid; dimerisation of phyB C-terminal fragments in yeast (Supplementary Fig. 8c); vectors not told.
In experiment [2] the target is LexA-PHYB CT ΔC (aa 625-1092) (Arabidopsis) (UniProt P14713). Described as above.
For experiment [3], the target named is phyB-GFP ΔC purified from yeast (Saccharomyces cerevisiae) (Arabidopsis) (UniProt P14713). As to the kind of experiment: pull-down; in vitro: phyB-GFP FL or ΔC purified from yeast and MBP-SPA1 expressed from E. coli; light-dependent; only the target purified.
Experiment [4] concerns the target T1, GST-PIF1-strep (Arabidopsis) (UniProt Q8GZM7).
T1 sequence: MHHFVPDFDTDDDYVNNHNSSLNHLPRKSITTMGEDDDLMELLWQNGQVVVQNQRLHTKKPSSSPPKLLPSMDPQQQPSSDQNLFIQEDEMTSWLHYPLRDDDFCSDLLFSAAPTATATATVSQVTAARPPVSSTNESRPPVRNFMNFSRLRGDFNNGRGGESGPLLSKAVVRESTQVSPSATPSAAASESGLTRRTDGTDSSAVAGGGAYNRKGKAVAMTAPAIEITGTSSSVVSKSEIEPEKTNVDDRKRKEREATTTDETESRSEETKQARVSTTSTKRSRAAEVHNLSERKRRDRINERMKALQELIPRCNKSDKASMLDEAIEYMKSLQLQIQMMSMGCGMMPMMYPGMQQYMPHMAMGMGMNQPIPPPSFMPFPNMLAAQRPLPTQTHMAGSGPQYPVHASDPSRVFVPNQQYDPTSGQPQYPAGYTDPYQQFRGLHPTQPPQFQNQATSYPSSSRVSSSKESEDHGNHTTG
As to the kind of experiment: pull-down; tripartite complex: 2 µg GST-PIF1-strep on GST agarose beads, cleared E. coli lysate with MBP-SPA1, without or with 1-2 µg purified phyB; 50 mM Tris pH 7.5, 150 mM NaCl, 0.1% Tween 20; anti-MBP blot; only the target purified.

These are yes or no findings as the source states them, for the method shown. For some of these results: Binding seen in cells or lysates may run through a third protein. Some entries that bind do so weakly or less than the wild type. For some of these results: Where a sequence is shown, tags or fusion partners need not be part of it.

As to “LexA-PHYB CT ΔC (aa 625-1092) (from UniProt P14713 625-1092) (domain or fragment)”, the binding result in experiment [1] is “binds”; in experiment [2], “no binding”.

B1: MBP-SPA1 (protein, UniProt Q9SYX2 1-1029)
chain: MPVMERVAEETVATNNIQLKARVDDVPCNKLDARHNDMVIQSETANSDCPGSSAHRNVDLTKPPPPEEAAGAKLSVEELTLGNYRIVQGSNNTNVDSPRAGKFEHLYRLARGSAFRAGDGDLDSQPRDMDQMLSRIRQQLAGAPSERQNLKPFMSRRSDQNLEAFSERLRAAGENSIMNAPALISEGVQMKTPVSSSNFSQLLLKRAMKGKGVVGKNQETPPEFVSDQDLGSKEKKLDISKSPTPHDVLPLKSSPKGNGMVSHGDGNHSKSSIGISLREFLRSSYAKREKRHGLCLFRQLVELVDSAHSKRLFLLDLRPSLFTLVPSKKLRYIGNFGKNDLESDVDEDLNRRRPVVEESSSGGRDSKKRKMDLHLNSPGNQLQATSTGRPFKRKSPVIDLNMVDARNPDSCELQQQDYIKNLSVSSVSRKQSMSTWLEEQWYTCPEEINGEDIGEKSNIYALGVLLFELLCHCESGEMHAAMMADLRHRILPPTFLSKYPKEAGFCLWLLHPEPSSRPSARDILKSELICEDDSVKSTAAAEEISELLLHFLSSLEVQKKKKASKLLQDIQTLEDDIKEAERRYSSNVSLVRSHGAIEKRVQSSPLDEHCTTSSALFVPTANTDRLMSNIRQLEDAYFFMRSQINLSSSAATARSDKTLKDRDRCSENQNENQDMSTKGKSSDQLEVFFEGLCKFARYSKFETCGTIRSGDLLNSASVVCSLSFDPDEEHIAAAGISKKIKIFDFNAFMNESVGVHYPLVEMVNKSKLSCVCWNSYIKNYLASTDYDGVVQIWDAGTGQGFSQYTEHQKRAWSVDFSPSDPTKFVSGSDDCSVKLWSINEKRSLGTIWSPANVCCVQFSSYSNHLLAFGSADYKVYCYDLRYVKTPWCTLAGHEKAVSYVKFMDSETIVSASTDNSLKLWNLNKTNSSGLSPGACSLTYKGHTNQKNFVGLSVLDGYIACGSETNEVYSYYKSLPMPMTSYKFGSVDPISGNEYFDDNGQFVSSVCWRKKSNMLVAANSTGNMKLLKLV
As for B1, the figures for the binding entry in experiment [3] and in experiment [4] were “no binding” and “binds”, respectively.
